For 1 substance, binding results are on record in paper PMC6207862.

The chains behind the UniProt entries cited, without tags or fusion partners. Residues count along the entry.
UniProt Q9JHJ8, residues 47-277: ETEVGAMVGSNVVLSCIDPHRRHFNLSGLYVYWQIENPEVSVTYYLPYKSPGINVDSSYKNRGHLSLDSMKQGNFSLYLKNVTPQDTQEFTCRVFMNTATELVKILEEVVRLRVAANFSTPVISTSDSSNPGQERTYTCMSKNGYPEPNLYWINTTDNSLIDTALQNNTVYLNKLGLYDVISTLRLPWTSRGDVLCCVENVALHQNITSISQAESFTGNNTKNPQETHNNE

These are yes or no findings as the source states them, for the method shown. Some binding calls cover weakened binding; strength is not graded here.

The target in the experiment is T1, murine ICOS receptor on CHO cells (mouse) (UniProt Q9WVS0).
T1 sequence: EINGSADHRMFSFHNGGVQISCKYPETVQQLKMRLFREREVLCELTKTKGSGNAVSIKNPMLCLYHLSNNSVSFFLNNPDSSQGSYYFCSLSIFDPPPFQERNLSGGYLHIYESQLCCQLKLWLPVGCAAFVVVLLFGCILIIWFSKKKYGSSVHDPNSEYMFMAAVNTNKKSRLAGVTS
Briefly: cell-based ligand-receptor blocking assay; ICOSL-Fc in solution binding to CHO cells expressing murine or human ICOS receptor, with serial dilutions of anti-ICOSL VNAR-Fc; details in ref. 42; only the binder purified.

On to “mICOSL-Fc (from UniProt Q9JHJ8 47-277) (Fc fusion)”, for which the binding entry is reported as “binds”.
